# Measurements published in PMC5107933.
# These are yes or no findings as the source states them, for the method shown. Binding seen in cells or lysates may run through a third protein. Binding calls can cover weak binding; strength is not graded here.
# Target: T1, Mitsugumin 53 (MG53), endogenous in rabbit skeletal muscle triad vesicles (rabbit (endogenous in skeletal muscle triad vesicles)) (UniProt Q1XH18)
# T1 sequence: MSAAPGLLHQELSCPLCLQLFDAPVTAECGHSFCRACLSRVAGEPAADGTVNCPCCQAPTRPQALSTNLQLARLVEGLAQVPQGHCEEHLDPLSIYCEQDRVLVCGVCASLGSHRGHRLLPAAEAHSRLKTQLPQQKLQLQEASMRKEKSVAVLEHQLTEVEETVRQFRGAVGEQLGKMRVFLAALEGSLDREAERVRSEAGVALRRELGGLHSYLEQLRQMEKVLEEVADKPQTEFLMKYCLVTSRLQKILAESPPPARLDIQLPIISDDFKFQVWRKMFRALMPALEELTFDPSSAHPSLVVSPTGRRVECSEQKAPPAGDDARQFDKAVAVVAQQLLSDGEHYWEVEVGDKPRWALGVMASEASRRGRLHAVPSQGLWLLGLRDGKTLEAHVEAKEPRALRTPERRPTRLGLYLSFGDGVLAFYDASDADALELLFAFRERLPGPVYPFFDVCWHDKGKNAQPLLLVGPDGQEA
# Assay: co-IP; solubilized triad vesicle sample from rabbit skeletal muscle (30 μg of total proteins); immunoprecipitation with anti-Orai1 or anti-MG53 antibody; immunoblot with various antibodies; reaction without antibody as negative control
row,Substance,binding
1,"STIM1, endogenous in rabbit skeletal muscle triad vesicles",no binding
2,"TRPC4, endogenous in rabbit skeletal muscle triad vesicles",no binding
3,"Dihydropyridine receptor (DHPR), endogenous in rabbit skeletal muscle triad vesicles",no binding
4,"TRPC3, endogenous in rabbit skeletal muscle triad vesicles",binds
